# Reference: doi:10.1101/2021.10.08.463712
# By UniProt entry, the sequences of proteins in these tests, tags left out.
# UniProt Q9M086: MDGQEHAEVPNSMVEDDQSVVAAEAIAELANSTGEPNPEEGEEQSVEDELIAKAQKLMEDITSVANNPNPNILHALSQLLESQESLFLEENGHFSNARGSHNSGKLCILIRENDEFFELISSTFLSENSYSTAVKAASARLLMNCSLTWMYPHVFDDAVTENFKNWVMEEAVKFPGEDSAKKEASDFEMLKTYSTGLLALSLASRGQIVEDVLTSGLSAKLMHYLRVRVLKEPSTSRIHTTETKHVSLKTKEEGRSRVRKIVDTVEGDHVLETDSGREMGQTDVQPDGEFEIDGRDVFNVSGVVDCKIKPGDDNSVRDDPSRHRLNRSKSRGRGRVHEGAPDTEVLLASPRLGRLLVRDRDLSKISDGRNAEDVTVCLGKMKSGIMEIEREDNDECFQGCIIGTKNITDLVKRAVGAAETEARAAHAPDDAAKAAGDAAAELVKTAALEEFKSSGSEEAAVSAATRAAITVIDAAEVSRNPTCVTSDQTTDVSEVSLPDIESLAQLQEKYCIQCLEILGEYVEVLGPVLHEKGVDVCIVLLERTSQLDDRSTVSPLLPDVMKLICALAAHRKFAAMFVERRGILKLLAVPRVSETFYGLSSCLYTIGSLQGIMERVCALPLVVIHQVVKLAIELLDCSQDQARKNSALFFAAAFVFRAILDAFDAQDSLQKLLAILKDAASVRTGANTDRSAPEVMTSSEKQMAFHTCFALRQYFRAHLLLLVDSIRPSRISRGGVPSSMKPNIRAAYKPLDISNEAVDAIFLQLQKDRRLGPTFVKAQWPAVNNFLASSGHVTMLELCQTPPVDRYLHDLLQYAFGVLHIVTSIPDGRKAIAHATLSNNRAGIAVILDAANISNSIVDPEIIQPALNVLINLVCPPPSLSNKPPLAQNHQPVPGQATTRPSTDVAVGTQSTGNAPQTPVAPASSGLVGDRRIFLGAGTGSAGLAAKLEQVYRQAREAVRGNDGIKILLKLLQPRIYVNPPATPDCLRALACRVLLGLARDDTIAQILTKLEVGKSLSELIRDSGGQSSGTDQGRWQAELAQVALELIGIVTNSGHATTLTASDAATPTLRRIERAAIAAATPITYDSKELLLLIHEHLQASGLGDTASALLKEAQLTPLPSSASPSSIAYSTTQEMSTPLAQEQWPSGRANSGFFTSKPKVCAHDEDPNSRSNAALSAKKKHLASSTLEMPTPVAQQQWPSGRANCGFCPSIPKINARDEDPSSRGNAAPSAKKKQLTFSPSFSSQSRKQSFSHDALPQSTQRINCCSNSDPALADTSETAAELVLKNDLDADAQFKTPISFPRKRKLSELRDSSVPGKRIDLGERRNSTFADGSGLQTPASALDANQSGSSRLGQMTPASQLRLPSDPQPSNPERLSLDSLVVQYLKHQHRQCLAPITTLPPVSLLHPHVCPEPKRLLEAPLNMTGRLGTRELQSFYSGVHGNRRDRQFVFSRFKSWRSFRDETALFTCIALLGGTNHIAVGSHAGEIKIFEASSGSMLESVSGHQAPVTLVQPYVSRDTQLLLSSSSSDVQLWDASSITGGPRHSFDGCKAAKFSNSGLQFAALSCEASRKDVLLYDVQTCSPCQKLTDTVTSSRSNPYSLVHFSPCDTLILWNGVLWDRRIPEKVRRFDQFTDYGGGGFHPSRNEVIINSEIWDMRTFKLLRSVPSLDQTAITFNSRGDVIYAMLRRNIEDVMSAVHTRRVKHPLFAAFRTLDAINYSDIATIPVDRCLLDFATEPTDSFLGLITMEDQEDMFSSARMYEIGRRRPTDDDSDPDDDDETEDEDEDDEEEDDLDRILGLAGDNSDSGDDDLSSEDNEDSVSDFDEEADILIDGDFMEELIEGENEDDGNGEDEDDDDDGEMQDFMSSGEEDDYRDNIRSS
# UniProt O22467: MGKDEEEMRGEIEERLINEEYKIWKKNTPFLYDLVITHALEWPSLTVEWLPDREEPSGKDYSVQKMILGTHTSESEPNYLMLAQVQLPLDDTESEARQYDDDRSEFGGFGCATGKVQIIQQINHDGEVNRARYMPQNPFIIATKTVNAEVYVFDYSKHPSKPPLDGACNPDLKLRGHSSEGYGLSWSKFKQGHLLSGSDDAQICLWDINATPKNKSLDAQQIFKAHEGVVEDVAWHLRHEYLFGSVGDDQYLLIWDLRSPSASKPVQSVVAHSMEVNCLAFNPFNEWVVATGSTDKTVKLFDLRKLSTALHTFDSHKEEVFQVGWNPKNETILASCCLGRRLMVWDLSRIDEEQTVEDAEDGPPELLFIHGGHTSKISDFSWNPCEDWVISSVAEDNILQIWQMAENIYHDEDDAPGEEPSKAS
# No constants are given. Whether binding was seen depends on the method and setting. Binding seen in cells or lysates may run through a third protein. A yes stands for co-enrichment or nearness to the bait. Other partners may have been found. Tags and fused reporters may be left off the sequences shown.
# T1: GFP-RZ-1C (Arabidopsis thaliana) (UniProt Q8RWN5)
# T1 sequence: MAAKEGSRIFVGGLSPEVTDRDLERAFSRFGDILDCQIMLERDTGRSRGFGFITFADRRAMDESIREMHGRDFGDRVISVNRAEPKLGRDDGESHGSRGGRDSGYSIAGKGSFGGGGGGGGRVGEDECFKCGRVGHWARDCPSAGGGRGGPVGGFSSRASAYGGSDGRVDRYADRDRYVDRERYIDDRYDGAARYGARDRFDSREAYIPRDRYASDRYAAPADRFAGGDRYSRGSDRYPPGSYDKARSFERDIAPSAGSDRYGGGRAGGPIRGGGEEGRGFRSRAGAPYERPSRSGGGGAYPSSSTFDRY
# B1: Histone deacetylase HDA19 (enzyme, UniProt O22446 1-501)
# chain: MDTGGNSLASGPDGVKRKVCYFYDPEVGNYYYGQGHPMKPHRIRMTHALLAHYGLLQHMQVLKPFPARDRDLCRFHADDYVSFLRSITPETQQDQIRQLKRFNVGEDCPVFDGLYSFCQTYAGGSVGGSVKLNHGLCDIAINWAGGLHHAKKCEASGFCYVNDIVLAILELLKQHERVLYVDIDIHHGDGVEEAFYATDRVMTVSFHKFGDYFPGTGHIQDIGYGSGKYYSLNVPLDDGIDDESYHLLFKPIMGKVMEIFRPGAVVLQCGADSLSGDRLGCFNLSIKGHAECVKFMRSFNVPLLLLGGGGYTIRNVARCWCYETGVALGVEVEDKMPEHEYYEYFGPDYTLHVAPSNMENKNSRQMLEEIRNDLLHNLSKLQHAPSVPFQERPPDTETPEVDEDQEDGDKRWDPDSDMDVDDDRKPIPSRVKREAVEPDTKDKDGLKGIMERGKGCEVEVDESGSTKVTGVNPVGVEEASVKMEEEGTNKGGAEQAFPPKT
# B2: MSI4 (protein, UniProt O22607 1-507)
# chain: MESDEAAAVSPQATTPSGGTGASGPKKRGRKPKTKEDSQTPSSQQQSDVKMKESGKKTQQSPSVDEKYSQWKGLVPILYDWLANHNLVWPSLSCRWGPQLEQATYKNRQRLYLSEQTDGSVPNTLVIANCEVVKPRVAAAEHISQFNEEARSPFVKKYKTIIHPGEVNRIRELPQNSKIVATHTDSPDVLIWDVETQPNRHAVLGAANSRPDLILTGHQDNAEFALAMCPTEPFVLSGGKDKSVVLWSIQDHITTIGTDSKSSGSIIKQTGEGTDKNESPTVGPRGVYHGHEDTVEDVAFSPTSAQEFCSVGDDSCLILWDARTGTNPVTKVEKAHDADLHCVDWNPHDDNLILTGSADNTVRLFDRRKLTANGVGSPIYKFEGHKAAVLCVQWSPDKSSVFGSSAEDGLLNIWDYDRVSKKSDRAAKSPAGLFFQHAGHRDKVVDFHWNASDPWTIVSVSDDCETTGGGGTLQIWRMSDLIYRPEEEVVAELEKFKSHVMTCASKP
# B3: DDB1A (protein, UniProt Q9M0V3 1-1088)
# chain: MSSWNYVVTAHKPTSVTHSCVGNFTSPQELNLIVAKCTRIEIHLLTPQGLQPMLDVPIYGRIATLELFRPHGEAQDFLFIATERYKFCVLQWDPESSELITRAMGDVSDRIGRPTDNGQIGIIDPDCRLIGLHLYDGLFKVIPFDNKGQLKEAFNIRLEELQVLDIKFLFGCAKPTIAVLYQDNKDARHVKTYEVSLKDKDFVEGPWSQNSLDNGADLLIPVPPPLCGVLIIGEETIVYCSASAFKAIPIRPSITKAYGRVDVDGSRYLLGDHAGMIHLLVITHEKEKVTGLKIELLGETSIASTISYLDNAVVFVGSSYGDSQLVKLNLHPDAKGSYVEVLERYINLGPIVDFCVVDLERQGQGQVVTCSGAFKDGSLRVVRNGIGINEQASVELQGIKGMWSLKSSIDEAFDTFLVVSFISETRILAMNLEDELEETEIEGFLSQVQTLFCHDAVYNQLVQVTSNSVRLVSSTTRELRDEWHAPAGFTVNVATANASQVLLATGGGHLVYLEIGDGKLTEVQHALLEYEVSCLDINPIGDNPNYSQLAAVGMWTDISVRIFSLPELTLITKEQLGGEIIPRSVLLCAFEGISYLLCALGDGHLLNFQMDTTTGQLKDRKKVSLGTQPITLRTFSSKSATHVFAASDRPTVIYSSNKKLLYSNVNLKEVSHMCPFNSAAFPDSLAIAREGELTIGTIDDIQKLHIRTIPLGEHARRICHQEQTRTFGICSLGNQSNSEESEMHFVRLLDDQTFEFMSTYPLDSFEYGCSILSCSFTEDKNVYYCVGTAYVLPEENEPTKGRILVFIVEDGRLQLIAEKETKGAVYSLNAFNGKLLAAINQKIQLYKWMLRDDGTRELQSECGHHGHILALYVQTRGDFIVVGDLMKSISLLLYKHEEGAIEERARDYNANWMSAVEILDDDIYLGAENNFNLLTVKKNSEGATDEERGRLEVVGEYHLGEFVNRFRHGSLVMRLPDSEIGQIPTVIFGTVNGVIGVIASLPQEQYTFLEKLQSSLRKVIKGVGGLSHEQWRSFNNEKRTAEARNFLDGDLIESFLDLSRNKMEDISKSMNVQVEELCKRVEELTRLH
# Molecular target: T1, GFP-RZ-1C (Arabidopsis thaliana)
# Test: affinity purification with mass spectrometry
row,binding,Molecule
1,binds,DCAF1 (from UniProt Q9M086 1-1883)
2,binds,MSI1 (from UniProt O22467 1-424)
3,binds,EMB1579
4,binds,ACINUS
5,binds,B1
6,binds,B2
7,binds,B3
